Earlier results as cited in patent publication US5760065A, “Anti-HIV agent” (priority 1994, dated 1998).
At least one compound was matched to its structure with a doubt left.

System: reverse transcription
Conditions: background, qualitative; cited from earlier work

In the case of Cc1cn([C@H]2C[C@H](N=[N+]=[N-])[C@@H](CO)O2)c(=O)[nH]c1=O [AZT, Azidothymidine], the “inhibition of reverse transcription” value is listed as “inhibition of reverse transcription”.
